Experimental data from PubChem BioAssay AID540276 (National Center for Advancing Translational Sciences (NCATS), 2011).
The whole screen tested about 300,000 compounds, of which about 5,400 (1.8%) were called active. Inconclusive means that the source gave no clear call. Such entries were picked first, then a sample of the others. Calls follow the shape of the full dose curve; tested in HEK293 cells. A potency beside an inconclusive call is a rough fit, not a confirmed value.

assay: qHTS for inhibitors of binding or entry into cells for Marburg Virus; conditions: Marburg virus pseudotyped entry inhibition, cell reporter; activity change, negative = inhibition: at 37.8 µM (top of the series) unless noted
% is scaled to controls: 0 for no effect and ±100 for the full control effect; potency is read from the fitted curve at half-maximal effect.

Question: For `CCOC(=O)c1ccc(N2C(=O)c3n[nH]c(-c4ccco4)c3C2c2ccc(O)c(OC)c2)cc1` (stereo not drawn), which Potency is on record?
Answer: inconclusive: 2 µM [inhibitor, partial curve, poor fit]

Question: For `Cc1nn(Cc2ccccc2)c(C)c1N`, which “activity change, negative = inhibition” value is on record?
Answer: inactive: -5.65%

Question: Which “activity change, negative = inhibition” value does the source give for `COc1ccc(-c2cc(C(=O)O)nc3ccc4ccccc4c23)cc1OC` here?
Answer: inactive: -26.6%

Question: Which Potency does the source give for `C(=N\Nc1nc(-c2ccccc2)cs1)/c1cccnc1` here?
Answer: inconclusive: 3.66 µM [activator, full curve]

Question: For `CCCC1=Nc2cc(C(=O)NCCc3ccc(OC)cc3OC)ccc2Sc2ccccc21`, which Potency is on record?
Answer: inconclusive: 35.5 µM [inhibitor, single point]

Question: With `CCCCN(C)C(=O)C1CCN(CCCc2ccccc2)CC1` as the molecule, how does the “activity change, negative = inhibition” value read?
Answer: inactive: -25.2%

Question: With `CCCc1ccc(OCC(=O)NNC(=S)NC(=O)c2ccco2)cc1` as the molecule, how does the Potency read?
Answer: inconclusive: 25.1 µM [inhibitor, single point]

Question: Which Potency does the source give for `ClC1CCCCC1n1nnc2ccccc21` (stereo not drawn) here?
Answer: inconclusive: 6.31 µM [activator, single point]

Question: With `COCCCNc1nc2c(S(=O)(=O)c3ccc(C)c(C)c3)nnn2c2ccc(Cl)cc12` as the molecule, how does the Potency read?
Answer: inconclusive: 2.82 µM [inhibitor, single point]

Question: For `Cc1ccccc1OCCOc1ccc([N+](=O)[O-])cc1/C=N/n1cnnc1`, which Potency is on record?
Answer: inconclusive: 4.47 µM [inhibitor, partial curve, poor fit]

Question: For `C=CCOc1ccc(C2NC(=O)c3ccccc3O2)cc1OCC` (stereo not drawn), which Potency is on record?
Answer: inconclusive: 1.26 µM [inhibitor, single point]

Question: Which “activity change, negative = inhibition” value does the source give for `O=C(c1cc2nc(C3CC3)cc(C(F)F)n2n1)N1CCOCC1` here?
Answer: inactive: -1.27%

Question: With `Cc1ccccc1C(=O)Nc1ccc2c(C#N)c3nc4ccccc4nc3n2c1` as the molecule, how does the “activity change, negative = inhibition” value read?
Answer: inactive: -17.2%

Question: With `COC(=O)NNC(=O)/C=C/c1ccccc1` as the molecule, how does the Potency read?
Answer: inconclusive: 31.6 µM [activator, single point]

Question: Which “activity change, negative = inhibition” value does the source give for `Cc1cc(C)nc(Sc2ccc3nnnn3n2)n1` here?
Answer: inactive: 14.3%

Question: With `Cc1oc2ccc(O)c(CN(C)C)c2c1C(=O)c1ccccc1` as the molecule, how does the Potency read?
Answer: active: 11.2 µM

Question: Which Potency does the source give for `CCOc1cc(C)c(S(=O)(=O)Nc2ccc3cn[nH]c3c2)cc1C` here?
Answer: inconclusive: 7.3 µM [inhibitor, partial curve, poor fit]

Question: Which “activity change, negative = inhibition” value does the source give for `CC(=O)N1SC(N)=NC1c1ccccc1` (stereo not drawn) here?
Answer: inactive: 6.28%

Question: Which “activity change, negative = inhibition” value does the source give for `Cc1ccc(C)c(NC(=O)COC(=O)CCc2ccc(S(=O)(=O)N3CCOCC3)cc2)c1` here?
Answer: inactive: 9.3% [at 46.1 µM]

Question: Which Potency does the source give for `COc1ccc(-c2csc(Nc3cccc(C)n3)n2)cc1C` here?
Answer: inconclusive: 35.5 µM [inhibitor, partial curve, poor fit]

Question: Which Potency does the source give for `O=C(c1cccs1)N1C[C@@H](n2cc(-c3ccc(F)cc3)nn2)[C@@H](O)C[C@@H]1c1ccc(Cl)cc1` here?
Answer: inconclusive: 19.9 µM [inhibitor, partial curve, poor fit]

Question: With `COc1ccc(/C=C(/C#N)C(=O)NC2CCCCC2)cc1Br` as the molecule, how does the Potency read?
Answer: inconclusive: 10.3 µM [inhibitor, partial curve, poor fit]

Question: With `O=[N+]([O-])c1ccc(N2CCN(Cc3cccc([N+](=O)[O-])c3)CC2)cc1` as the molecule, how does the Potency read?
Answer: inconclusive: 11.2 µM [inhibitor, partial curve, poor fit]

Question: Which Potency does the source give for `N#CC1(c2ccccc2)CCC(=O)N1Cc1ccccc1` (stereo not drawn) here?
Answer: inconclusive: 35.5 µM [activator, single point]

Question: With `CNC(CC(=O)c1ccc([N+](=O)[O-])cc1)C(Cl)(Cl)Cl` (stereo not drawn) as the molecule, how does the Potency read?
Answer: inconclusive: 35.5 µM [inhibitor, single point]

Question: Which Potency does the source give for `COC(=O)c1ccccc1NC(=O)COC(=O)c1ccc(C)c(NC(=O)c2ccco2)c1` here?
Answer: inconclusive: 13 µM [inhibitor, partial curve, poor fit]

Question: Which Potency does the source give for `Cc1nc(Cl)cc(N/N=C/c2ccc(O)cc2O)n1` here?
Answer: inconclusive: 31.6 µM [inhibitor, single point]

Question: Which Potency does the source give for `O=C(Cn1c(=O)n(CC2CCCO2)c(=O)c2ccccc21)Nc1cccc(Cl)c1` (stereo not drawn) here?
Answer: inconclusive: 2.24 µM [inhibitor, partial curve, poor fit]

Question: For `O=C(/C=C/Nc1ccc(Oc2ccccc2Cl)cc1)c1ccco1`, which Potency is on record?
Answer: inconclusive: 35.5 µM [inhibitor, single point]

Question: For `CSc1ccccc1NC(=O)c1c(Br)cnn1C`, which “activity change, negative = inhibition” value is on record?
Answer: inactive: 0%

Question: Which Potency does the source give for `C(=C\c1ccccc1)/CSc1nnc(-c2ccccc2)n1Cc1ccco1` here?
Answer: inconclusive: 11.6 µM [inhibitor, partial curve, poor fit]

Question: Which Potency does the source give for `COc1ccc2c(c1)C(=O)CC(c1ccc3c(c1)OCCO3)O2` (stereo not drawn) here?
Answer: inconclusive: 1.78 µM [inhibitor, full curve]

Question: For `CCOc1ccc(N(C)S(=O)(=O)c2cc(-c3cc(C)no3)ccc2CC)cc1`, which Potency is on record?
Answer: inconclusive: 15.8 µM [inhibitor, single point]

Question: For `Cc1cccc(N2C(=O)c3cccc4c(N)ccc(c34)C2=O)c1`, which Potency is on record?
Answer: inconclusive: 35.5 µM [inhibitor, single point]

Question: With `CCn1cnc2cc(NCc3ccc(OC)cc3)ccc21` as the molecule, how does the Potency read?
Answer: inconclusive: 25.9 µM [inhibitor, single point]

Question: With `Nc1cc(S(=O)(=O)N2CCOCC2)ccc1Oc1ccc(F)cc1` as the molecule, how does the Potency read?
Answer: inconclusive: 2.24 µM [inhibitor, full curve, poor fit]

Question: For `Cc1cccc(NC(=O)CSc2nc3ccc(NC(=O)c4ccco4)cc3s2)c1`, which Potency is on record?
Answer: inconclusive: 35.5 µM [inhibitor, single point]

Question: For `Cn1c(-c2ccc3ccccc3n2)[n+](C)c2ccccc21`, which “activity change, negative = inhibition” value is on record?
Answer: inactive: -16.7% [at 46.1 µM]

Question: With `Clc1ccccc1N1CCN(Cc2ccc(Br)o2)CC1` as the molecule, how does the Potency read?
Answer: inconclusive: 5.62 µM [inhibitor, single point]

Question: Which Potency does the source give for `COC(=O)\C(C(C)=O)=C(/C=C/C=C/C=C/N(C)C)N(C)C` here?
Answer: inconclusive: 28.2 µM [inhibitor, single point]

Question: Which Potency does the source give for `N#Cc1c(NC(=O)c2ccccc2)sc2c1CCCCC2` here?
Answer: inconclusive: 10 µM [inhibitor, partial curve, poor fit]

Question: With `O=c1[nH]c(N/N=C/c2ccccc2)nc2ccccc12` as the molecule, how does the Potency read?
Answer: inconclusive: 0.326 µM [activator, partial curve, poor fit]

Question: For `CCN(CC)c1ccc(C(=O)OCC(=O)Nc2ccccc2-c2ccccc2)cc1`, which Potency is on record?
Answer: inconclusive: 18.4 µM [inhibitor, single point]
